Test results: the supplement of paper PMC11006884
What follows is the remainder of the data, with few or none of the targets with a hit. Single values of this set are uncertain. Only a part is listed here, and it is no random draw.

Protein sequences, listed by entry. Tags and fused reporters are not part of them. Lines headed by an entry give the natural chain unless they say otherwise; changes in a name come on top.
UniProt P49327, whole entry, looked up: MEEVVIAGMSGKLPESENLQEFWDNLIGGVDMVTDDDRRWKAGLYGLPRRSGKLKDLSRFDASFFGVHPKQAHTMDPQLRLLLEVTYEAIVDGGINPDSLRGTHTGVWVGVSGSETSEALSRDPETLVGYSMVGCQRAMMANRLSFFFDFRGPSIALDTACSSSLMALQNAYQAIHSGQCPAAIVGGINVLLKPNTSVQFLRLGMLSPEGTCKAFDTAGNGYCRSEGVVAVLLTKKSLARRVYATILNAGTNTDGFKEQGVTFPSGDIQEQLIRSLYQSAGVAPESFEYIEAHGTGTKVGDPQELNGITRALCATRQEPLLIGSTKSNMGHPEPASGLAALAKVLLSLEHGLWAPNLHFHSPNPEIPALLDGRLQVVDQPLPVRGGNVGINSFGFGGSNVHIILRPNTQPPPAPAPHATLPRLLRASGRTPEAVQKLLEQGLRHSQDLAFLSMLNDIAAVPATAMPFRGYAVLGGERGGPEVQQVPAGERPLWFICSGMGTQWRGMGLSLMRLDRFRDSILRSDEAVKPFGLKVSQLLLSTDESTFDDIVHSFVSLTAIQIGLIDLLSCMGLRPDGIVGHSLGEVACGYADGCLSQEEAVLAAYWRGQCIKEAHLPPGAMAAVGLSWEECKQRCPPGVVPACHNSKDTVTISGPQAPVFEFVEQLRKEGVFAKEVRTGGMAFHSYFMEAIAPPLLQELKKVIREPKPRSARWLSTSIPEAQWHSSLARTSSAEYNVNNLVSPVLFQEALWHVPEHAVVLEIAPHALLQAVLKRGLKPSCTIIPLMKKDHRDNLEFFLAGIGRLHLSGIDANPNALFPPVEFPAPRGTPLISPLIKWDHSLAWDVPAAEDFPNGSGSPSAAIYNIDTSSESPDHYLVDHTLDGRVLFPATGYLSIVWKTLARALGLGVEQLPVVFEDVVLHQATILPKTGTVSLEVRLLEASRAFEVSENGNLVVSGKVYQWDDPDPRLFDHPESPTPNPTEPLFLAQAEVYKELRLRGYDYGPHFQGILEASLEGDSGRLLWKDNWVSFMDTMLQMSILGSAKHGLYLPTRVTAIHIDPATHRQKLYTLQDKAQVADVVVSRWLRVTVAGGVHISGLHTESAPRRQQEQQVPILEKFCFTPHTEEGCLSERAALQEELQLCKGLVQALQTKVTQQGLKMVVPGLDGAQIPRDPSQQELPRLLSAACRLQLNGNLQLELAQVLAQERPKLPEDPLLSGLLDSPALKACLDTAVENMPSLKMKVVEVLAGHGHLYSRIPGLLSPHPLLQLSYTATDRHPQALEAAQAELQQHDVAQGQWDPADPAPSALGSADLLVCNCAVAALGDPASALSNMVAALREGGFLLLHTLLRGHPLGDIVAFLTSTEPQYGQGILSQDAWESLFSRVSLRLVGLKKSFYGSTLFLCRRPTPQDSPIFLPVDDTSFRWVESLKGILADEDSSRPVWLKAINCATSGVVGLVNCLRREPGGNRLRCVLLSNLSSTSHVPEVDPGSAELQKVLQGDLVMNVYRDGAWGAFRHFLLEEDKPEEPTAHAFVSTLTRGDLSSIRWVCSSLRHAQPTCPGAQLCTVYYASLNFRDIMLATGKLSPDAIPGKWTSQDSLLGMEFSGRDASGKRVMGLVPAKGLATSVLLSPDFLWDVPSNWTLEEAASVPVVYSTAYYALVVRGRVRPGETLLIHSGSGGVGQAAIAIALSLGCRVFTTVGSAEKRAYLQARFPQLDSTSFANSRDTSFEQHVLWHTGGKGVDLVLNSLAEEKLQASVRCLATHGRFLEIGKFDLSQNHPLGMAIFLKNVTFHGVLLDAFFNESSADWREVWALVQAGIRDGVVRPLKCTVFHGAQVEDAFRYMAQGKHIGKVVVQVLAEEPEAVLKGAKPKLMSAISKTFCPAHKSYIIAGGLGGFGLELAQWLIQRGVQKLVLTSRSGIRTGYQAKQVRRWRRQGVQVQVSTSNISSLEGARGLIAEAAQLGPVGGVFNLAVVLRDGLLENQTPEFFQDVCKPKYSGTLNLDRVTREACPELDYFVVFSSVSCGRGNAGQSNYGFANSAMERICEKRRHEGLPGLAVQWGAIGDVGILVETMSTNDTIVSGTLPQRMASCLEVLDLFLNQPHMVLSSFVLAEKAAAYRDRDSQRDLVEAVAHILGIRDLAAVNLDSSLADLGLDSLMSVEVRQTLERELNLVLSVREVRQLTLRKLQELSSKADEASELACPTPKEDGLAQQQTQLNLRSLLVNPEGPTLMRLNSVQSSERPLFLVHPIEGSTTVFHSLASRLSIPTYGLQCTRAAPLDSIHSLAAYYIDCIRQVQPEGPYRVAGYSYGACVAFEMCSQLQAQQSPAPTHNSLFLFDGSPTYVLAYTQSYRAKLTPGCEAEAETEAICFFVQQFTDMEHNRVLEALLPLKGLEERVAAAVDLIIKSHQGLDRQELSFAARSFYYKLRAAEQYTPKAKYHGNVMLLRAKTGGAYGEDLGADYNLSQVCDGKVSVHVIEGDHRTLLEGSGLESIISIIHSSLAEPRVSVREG
UniProt P49419: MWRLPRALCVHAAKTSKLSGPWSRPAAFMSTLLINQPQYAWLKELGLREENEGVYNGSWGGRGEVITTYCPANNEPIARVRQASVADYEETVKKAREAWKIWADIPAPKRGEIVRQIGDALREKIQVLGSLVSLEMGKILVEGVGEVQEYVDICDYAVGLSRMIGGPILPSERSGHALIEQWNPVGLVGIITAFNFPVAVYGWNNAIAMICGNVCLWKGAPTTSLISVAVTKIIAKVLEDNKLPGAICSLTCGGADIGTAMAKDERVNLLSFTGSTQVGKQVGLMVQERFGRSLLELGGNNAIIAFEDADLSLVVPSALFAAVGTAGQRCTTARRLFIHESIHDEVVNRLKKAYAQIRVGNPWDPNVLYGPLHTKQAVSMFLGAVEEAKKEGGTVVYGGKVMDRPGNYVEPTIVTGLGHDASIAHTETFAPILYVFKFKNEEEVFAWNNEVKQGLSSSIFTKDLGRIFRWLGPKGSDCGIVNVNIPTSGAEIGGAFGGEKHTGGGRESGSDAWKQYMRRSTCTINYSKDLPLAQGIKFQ
UniProt P45974: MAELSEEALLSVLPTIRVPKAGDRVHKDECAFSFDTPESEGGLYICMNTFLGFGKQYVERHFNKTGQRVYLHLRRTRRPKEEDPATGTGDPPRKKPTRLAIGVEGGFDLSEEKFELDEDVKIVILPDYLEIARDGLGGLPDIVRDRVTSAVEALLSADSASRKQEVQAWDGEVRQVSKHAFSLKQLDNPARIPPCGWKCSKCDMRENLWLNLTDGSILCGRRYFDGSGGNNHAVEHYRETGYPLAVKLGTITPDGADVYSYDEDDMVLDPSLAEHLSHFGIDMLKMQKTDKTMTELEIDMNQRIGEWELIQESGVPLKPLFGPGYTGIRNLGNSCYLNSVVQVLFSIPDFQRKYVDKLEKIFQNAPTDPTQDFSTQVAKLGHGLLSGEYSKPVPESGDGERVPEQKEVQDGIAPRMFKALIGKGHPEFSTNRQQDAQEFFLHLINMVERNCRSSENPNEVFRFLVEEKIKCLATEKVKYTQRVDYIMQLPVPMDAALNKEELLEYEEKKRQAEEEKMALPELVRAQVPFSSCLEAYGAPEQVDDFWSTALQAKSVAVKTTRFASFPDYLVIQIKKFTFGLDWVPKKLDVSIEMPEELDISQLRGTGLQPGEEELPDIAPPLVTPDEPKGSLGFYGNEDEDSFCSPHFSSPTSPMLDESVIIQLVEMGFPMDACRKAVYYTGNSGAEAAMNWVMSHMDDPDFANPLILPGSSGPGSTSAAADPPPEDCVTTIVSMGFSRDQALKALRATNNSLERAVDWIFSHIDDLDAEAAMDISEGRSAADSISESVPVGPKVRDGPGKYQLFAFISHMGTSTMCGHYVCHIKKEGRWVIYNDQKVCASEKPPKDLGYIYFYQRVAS
UniProt P46734: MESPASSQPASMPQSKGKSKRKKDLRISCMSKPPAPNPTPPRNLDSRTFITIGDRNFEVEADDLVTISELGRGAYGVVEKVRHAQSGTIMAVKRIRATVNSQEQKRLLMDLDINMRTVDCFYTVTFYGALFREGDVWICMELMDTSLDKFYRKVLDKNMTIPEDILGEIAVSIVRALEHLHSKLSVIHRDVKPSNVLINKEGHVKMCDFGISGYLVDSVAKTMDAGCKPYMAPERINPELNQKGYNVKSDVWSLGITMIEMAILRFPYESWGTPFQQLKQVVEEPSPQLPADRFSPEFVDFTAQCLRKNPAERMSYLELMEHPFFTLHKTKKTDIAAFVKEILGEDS
UniProt P47712: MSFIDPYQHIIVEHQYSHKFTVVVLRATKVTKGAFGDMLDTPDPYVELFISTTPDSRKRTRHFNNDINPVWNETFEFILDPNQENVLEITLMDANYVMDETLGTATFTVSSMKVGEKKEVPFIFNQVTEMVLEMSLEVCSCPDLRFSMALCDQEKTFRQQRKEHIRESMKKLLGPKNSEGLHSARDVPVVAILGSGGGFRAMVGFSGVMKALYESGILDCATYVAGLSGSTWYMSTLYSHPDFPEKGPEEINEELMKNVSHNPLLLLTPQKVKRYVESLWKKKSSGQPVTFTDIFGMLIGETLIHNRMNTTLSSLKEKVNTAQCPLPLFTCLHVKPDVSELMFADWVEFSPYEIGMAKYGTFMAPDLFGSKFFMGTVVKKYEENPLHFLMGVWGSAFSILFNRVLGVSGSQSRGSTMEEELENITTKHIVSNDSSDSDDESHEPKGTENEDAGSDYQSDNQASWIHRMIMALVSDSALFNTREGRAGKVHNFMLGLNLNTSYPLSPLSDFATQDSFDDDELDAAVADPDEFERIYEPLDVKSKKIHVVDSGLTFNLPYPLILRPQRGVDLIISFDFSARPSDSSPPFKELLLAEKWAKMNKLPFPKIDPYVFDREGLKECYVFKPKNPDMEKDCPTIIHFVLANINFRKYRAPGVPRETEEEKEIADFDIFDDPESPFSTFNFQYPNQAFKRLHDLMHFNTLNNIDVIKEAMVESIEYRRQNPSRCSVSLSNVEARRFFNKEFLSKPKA
UniProt P51608, whole entry: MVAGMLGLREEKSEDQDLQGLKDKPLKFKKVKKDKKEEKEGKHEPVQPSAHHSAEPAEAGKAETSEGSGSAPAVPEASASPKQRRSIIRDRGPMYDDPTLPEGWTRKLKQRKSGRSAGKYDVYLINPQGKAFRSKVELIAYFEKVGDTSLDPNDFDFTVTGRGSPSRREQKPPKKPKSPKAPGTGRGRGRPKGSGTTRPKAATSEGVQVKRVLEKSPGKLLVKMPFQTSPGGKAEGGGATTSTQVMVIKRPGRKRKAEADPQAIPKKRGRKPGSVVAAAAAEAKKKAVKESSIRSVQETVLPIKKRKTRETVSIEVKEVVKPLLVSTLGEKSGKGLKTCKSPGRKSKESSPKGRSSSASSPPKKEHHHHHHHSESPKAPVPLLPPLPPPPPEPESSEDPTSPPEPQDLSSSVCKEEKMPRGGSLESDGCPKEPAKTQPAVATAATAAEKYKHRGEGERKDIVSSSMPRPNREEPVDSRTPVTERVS
UniProt P51530: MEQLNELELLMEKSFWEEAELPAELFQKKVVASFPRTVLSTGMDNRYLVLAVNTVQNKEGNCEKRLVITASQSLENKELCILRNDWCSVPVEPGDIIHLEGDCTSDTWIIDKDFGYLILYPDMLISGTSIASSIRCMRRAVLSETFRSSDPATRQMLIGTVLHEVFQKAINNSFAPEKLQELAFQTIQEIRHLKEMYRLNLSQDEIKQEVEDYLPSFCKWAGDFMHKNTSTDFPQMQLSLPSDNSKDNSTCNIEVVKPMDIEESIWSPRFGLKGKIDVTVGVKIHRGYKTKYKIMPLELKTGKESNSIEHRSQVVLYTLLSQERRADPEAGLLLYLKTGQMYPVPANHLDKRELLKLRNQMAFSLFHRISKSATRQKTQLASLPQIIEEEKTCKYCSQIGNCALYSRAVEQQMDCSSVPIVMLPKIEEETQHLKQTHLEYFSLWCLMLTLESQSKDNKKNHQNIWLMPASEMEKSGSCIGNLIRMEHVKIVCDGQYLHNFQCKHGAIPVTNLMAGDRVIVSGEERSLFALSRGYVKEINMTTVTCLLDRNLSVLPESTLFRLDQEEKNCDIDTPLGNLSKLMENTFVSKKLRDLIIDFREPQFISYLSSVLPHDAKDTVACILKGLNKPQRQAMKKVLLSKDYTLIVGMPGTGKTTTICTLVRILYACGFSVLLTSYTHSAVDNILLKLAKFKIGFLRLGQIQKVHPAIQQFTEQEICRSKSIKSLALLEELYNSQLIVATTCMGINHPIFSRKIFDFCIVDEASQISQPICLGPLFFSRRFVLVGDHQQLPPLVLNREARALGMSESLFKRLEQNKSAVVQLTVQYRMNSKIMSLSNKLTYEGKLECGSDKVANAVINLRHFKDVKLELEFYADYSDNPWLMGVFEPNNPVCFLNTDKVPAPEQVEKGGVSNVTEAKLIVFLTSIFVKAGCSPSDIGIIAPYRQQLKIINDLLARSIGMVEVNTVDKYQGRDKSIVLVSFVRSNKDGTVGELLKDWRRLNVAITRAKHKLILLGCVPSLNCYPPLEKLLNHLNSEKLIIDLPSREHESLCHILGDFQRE

Compound: COC(=O)/C=C/c1ccccc1 [methyl cinnamate]
Test: log2 ratio of iodoacetamide-alkyne labeling of the cysteine site, DMSO over compound (competition); higher = stronger covalent engagement of the cysteine by the compound, active = 1 or more
Conditions: 500 µM; treatment time 1 h; system: HEK293T cell lysate
Procedure, shortened: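 HEK293T lysate (2 mg/mL) was treated with DMSO or electrophile (500 µM, 1 h, ambient temperature), then iodoacetamide alkyne (1 h), clicked to sCIP-TMT reagents, pooled, trypsin-digested overnight at 37 °C, streptavidin-enriched and acid-eluted. Peptides were run on Orbitrap Eclipse LC-MS/MS with FAIMS and quantified in FragPipe. The log2 competition ratio per cysteine is mean control-channel over mean compound-channel reporter intensity. Duplicate channels and three replicates were used, and cysteines quantified in only one replicate were excluded.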

Row | Target | log2 ratio of iodoacetamide-alkyne labeling
1 | FASN C1118 (UniProt P49327) | inactive: 0.00123
2 | FXR1 C77 (UniProt P51114) | inactive: 0.00294
3 | MRPL19 C248 (UniProt P49406) | inactive: -0.069
4 | LRBA C1704 (UniProt P50851) | inactive: 0.0274
5 | ALDH7A1 C478 (UniProt P49419) | inactive: 0.138
6 | CRKL C249 (UniProt P46109) | inactive: 0.364
7 | HCFC1 C1953 (UniProt P51610) | inactive: -0.19
8 | FASN C2091 (UniProt P49327) | inactive: -0.308
9 | CCT5 C493 (UniProt P48643) | inactive: 0.243
10 | FASN C779 (UniProt P49327) | inactive: 0.0523
11 | USP5 C195 (UniProt P45974) | inactive: 0.192
12 | RANBP2 C3071 (UniProt P49792) | inactive: 0.102
13 | UniProt P46734_C29 | inactive: 0.44
14 | PLA2G4A C726 (UniProt P47712) | inactive: 0.286
15 | SMARCA4 C1359 (UniProt P51532) | inactive: 0.126
16 | MECP2 C413 (UniProt P51608) | inactive: 0.0786
17 | DNA2 C1051 (UniProt P51530) | inactive: 0.0793
18 | CCT8 C347 (UniProt P50990) | inactive: -0.461
19 | RAB28 C31 (UniProt P51157) | inactive: 0.197
20 | IDH3A C351 (UniProt P50213) | inactive: 0.0711
21 | PREP C532 (UniProt P48147) | inactive: 0.0974

Copied from the list:
In log2 ratio of iodoacetamide-alkyne labeling, USP5 C195 (UniProt P45974) is entered as inactive: 0.192
In log2 ratio of iodoacetamide-alkyne labeling, MECP2 C413 (UniProt P51608) is entered as inactive: 0.0786
